This is an account of results in publication doi:10.1101/313494.

No constants are given. Whether binding was seen depends on the method and setting. In cells and extracts the contact can be indirect. Binding calls can cover weak binding; strength is not graded here. Tags and fused reporters may be left off the sequences shown.

Assay in all cases: co-IP
The target in assay [1] is T1, SAS-6-EGFP (Drosophila SAS-6 expressed in D.Mel cells) (Drosophila) (UniProt Q9VAC8).
T1 sequence: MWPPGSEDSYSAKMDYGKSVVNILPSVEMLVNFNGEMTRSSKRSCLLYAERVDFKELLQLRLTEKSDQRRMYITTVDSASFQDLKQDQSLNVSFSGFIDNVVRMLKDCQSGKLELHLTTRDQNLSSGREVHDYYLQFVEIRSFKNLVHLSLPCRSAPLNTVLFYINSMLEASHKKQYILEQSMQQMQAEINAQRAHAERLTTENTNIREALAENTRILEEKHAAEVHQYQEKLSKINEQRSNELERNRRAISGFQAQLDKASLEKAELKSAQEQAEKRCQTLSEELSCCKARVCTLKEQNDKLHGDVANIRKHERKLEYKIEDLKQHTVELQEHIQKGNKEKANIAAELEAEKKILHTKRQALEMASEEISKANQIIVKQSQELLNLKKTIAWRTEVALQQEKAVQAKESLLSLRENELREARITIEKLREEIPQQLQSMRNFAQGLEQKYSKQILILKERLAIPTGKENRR

In assay [2] the target is T2, SAS-6-GFP (Drosophila SAS-6 expressed in fission yeast) (Drosophila) (UniProt Q9VAC8).
T2 sequence: T1 sequence

In assay [3] the target is Bld10-GFP (Drosophila Bld10/CEP135 expressed in fission yeast) (Drosophila).

On to “HA-tagged PLP fragment containing the conserved PACT domain (Drosophila) (domain or fragment)”, for which the binding result in assay [1] is reported as “binds”.
For “mCherry-tagged Pcp1 truncation C (C-terminal region containing the conserved PACT domain) (S. pombe) (domain or fragment)”, in assay [2], the binding result is listed as “binds”.

B1: HA-tagged Pcp1 (fission yeast pericentrin orthologue) (protein, UniProt Q92351 1-1208)
chain: MSERDFNTQSPKFKDENANSVISQSDFLGKSLKNNNDDYSDFRGSYLNDKSSFQTPLRNGSYQPKGSLEFTPLLQSSNKNSDKYNGSLGDKGSFDPNSYGLSAISKQATQEALSISQGNDSYDVSKLTDLSKNSEIDHTDGELPANAALTLREQEKVLEKVSRENFGLRIKIVCLEKRLESMAPEQIKEAVKDNVELHAERANLQLQLKRTESLLQKSEDKNFKLEEKVDYLSKVNDVEQSQNVKVFTERIRFLENALEKVQREKDSLSTEMEEDKSNKEVDYEYEIRQLQNRLDELSEELDVAQDLLTEKEDEIATLKRQIEEKENSSSAFENEENSSYVHLQEDYAILQAKCDEFADRIQVLTADLEKEKENQIMHESEASIGLTDSMQVHTLQEQLHKANEEIEFLHDQISRMNEEGKNFEDIMLQFRSLEEERDVLESKLQTLEDDNNSLRLMTSSLGNQIESLRTQNREIDEEKNHLRLLASKNSDKALAETNIRLQEVTKELETLRMKNSNDLNEIHDLREENEGLTLKIDSITKEKDRLINELEQRIKSYEVNVSELNGTIDEYRNKLKDKEETYNEVMNAFQYKDNDLRRFHESINKLQDREKELTSNLEKKNLVISSLRETVAMLEKERESIKKYLSGNAKDLDNTNLMEILNDKISVLQRQLTDVKDELDVSEEEREEAIVAGQKLSASFELMSNEKQALELKYSSLKNELINAQNLLDRREEELSELSKKLFEERKIRSGSNDDIEKNKEINVLNSELADKLAQIRHLESDKMELDKLVHHLNRGIEEANIEENAVKKRLCLLMGCDYSSVSILQIVSQIEHFVNQQIQTIRSLKQELRHDFVQFSGKKEQELSRSFEKFGLGTETKHDILAQRNRNVSEKMNDLENAAQKFFSSPDRKNGYLYPSEHTSKIEYLEKTIEDLKLALQDELKNRNLLMDDISSYNKQTTKLQEKIKWLERERSILIDELESYRSNQFNYQNNLVQDKNELEERLKEIQKELEVYNNHFMKQAELMTSNVTDESQLMLKTLREALQSKTNNIDHLSTILERNRKEYKSLLDDYNQLRARYKNLQSNTPQSTQSGQYESEIKGLSKLTKYLQSKCRREHSLRLDLAFSKKFILMQLTGYETCNKINLRMLQKIGISPDPDLSKKHIKLKSLIIVVCSIERMKRMKNEWLKQAQLKQSLQRAAAKAKTANY
Consider B1, for which the binding entry in assay [3] is given as “binds”.
